Among the data in paper PMC10742334 are binding values, retold here.

Sequences of proteins named here, by UniProt entry; tags and fusion partners are left off.
UniProt P12814: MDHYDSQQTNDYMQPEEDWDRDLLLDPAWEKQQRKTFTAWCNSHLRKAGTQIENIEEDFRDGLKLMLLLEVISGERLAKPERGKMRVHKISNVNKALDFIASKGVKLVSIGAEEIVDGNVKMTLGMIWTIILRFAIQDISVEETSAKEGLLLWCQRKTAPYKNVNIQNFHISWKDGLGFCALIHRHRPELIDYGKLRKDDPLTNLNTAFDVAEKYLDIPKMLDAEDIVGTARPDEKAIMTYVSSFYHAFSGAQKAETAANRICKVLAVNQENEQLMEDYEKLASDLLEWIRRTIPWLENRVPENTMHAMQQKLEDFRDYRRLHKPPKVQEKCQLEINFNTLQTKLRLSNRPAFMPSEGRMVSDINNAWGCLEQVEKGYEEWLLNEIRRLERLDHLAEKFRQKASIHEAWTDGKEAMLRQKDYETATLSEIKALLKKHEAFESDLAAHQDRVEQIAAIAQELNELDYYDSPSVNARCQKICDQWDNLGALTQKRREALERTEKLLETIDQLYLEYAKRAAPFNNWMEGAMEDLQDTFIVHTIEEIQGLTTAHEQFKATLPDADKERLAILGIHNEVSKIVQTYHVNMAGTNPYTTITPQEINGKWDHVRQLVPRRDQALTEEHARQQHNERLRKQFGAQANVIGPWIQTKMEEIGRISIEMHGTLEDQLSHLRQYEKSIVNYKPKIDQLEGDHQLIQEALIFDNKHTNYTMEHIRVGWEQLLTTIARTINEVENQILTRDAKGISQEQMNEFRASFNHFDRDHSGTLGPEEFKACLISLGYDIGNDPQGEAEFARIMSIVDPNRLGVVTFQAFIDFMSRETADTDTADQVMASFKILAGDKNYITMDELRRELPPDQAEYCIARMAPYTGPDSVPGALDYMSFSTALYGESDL

This test has as its target T1, LLGL Scribble cell polarity complex component 2 (LLGL2) (UniProt Q6P1M3).
T1 sequence: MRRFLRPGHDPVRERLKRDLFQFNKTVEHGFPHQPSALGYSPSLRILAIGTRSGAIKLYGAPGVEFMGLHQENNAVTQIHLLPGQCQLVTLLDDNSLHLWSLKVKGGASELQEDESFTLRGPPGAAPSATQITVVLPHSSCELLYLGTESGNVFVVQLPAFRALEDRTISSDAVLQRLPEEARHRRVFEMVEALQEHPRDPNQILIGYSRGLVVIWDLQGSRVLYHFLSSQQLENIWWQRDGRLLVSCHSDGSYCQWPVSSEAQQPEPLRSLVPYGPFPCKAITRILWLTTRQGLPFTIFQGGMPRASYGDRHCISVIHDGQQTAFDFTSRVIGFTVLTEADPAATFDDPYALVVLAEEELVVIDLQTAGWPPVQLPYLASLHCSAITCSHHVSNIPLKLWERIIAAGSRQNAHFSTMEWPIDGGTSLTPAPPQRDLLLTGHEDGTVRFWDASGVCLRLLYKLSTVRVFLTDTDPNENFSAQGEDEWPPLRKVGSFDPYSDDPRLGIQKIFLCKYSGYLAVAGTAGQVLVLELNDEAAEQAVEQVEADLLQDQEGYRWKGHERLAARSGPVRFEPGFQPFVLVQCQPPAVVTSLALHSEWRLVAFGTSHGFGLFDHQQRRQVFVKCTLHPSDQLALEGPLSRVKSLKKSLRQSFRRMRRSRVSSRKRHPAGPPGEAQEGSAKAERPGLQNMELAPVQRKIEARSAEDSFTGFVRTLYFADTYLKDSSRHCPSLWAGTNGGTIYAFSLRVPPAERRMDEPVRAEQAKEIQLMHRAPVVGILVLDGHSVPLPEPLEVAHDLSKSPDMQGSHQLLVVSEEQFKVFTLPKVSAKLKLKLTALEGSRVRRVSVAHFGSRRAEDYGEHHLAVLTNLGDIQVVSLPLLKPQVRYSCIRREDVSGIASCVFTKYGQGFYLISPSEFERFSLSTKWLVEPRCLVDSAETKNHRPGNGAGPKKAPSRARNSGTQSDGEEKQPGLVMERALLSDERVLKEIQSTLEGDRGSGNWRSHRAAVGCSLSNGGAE
The test is described as follows: co-IP; 800 μg lysate of LLGL2-overexpressing ES-2 and SKOV3 cells, anti-LLGL2 antibody overnight at 4 °C, protein A/G magnetic beads, PBST washes, Western blot. (In western blotting, separated proteins are transferred to a membrane and probed.)

These are yes or no findings as the source states them, for the method shown. Binding seen in cells or lysates may run through a third protein. Some binding calls cover weakened binding; strength is not graded here.

With “α-actinin-1 (ACTN1) (from UniProt P12814 1-892)”, the binding entry is on record as “binds”.
